PubChem BioAssay AID504774 | Drosophila RNAi Screening Center – 2011

Screen: 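Genes required for cells to withstand methyl methanesulphonate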 (primary screen)
Cells: Drosophila Kc167 cells
Knock-down reagent: long dsRNA against Drosophila genes, about 0.25 µg dsRNA per well
Duration: about 6 days: 3 days knock-down, then 3 days with or without MMS
Conditions: methyl methanesulphonate 0.004% (w/v) for 3 days after knock-down
Read-out: 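Viability in wells given MMS, read as ATP luminescence, normalised by quantiles plate by plate and averaged across replicates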
Scale: mean viability with MMS and viability with MMS: higher = more surviving cells after MMS
In all, the deposit lists about 23,000 reagents; shown is a random part of those with a known target gene and a result. 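Values are quantile-normalised luminescence on an arbitrary scale; higher means more cells surviving MMS.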 Reagents against one gene are numbered here. A plus sign joins genes that one reagent is predicted to hit. Further read-outs or replicates are left out here.

CG17672 (GeneID 4379911) #1: mean viability with MMS = 2.86e6; viability with MMS, replicate 1 = 3.62e6
CG17672 (GeneID 4379911) #2: mean viability with MMS = 3.51e6; viability with MMS, replicate 1 = 4.01e6
CG2924 (GeneID 31214): mean viability with MMS = 3.63e6; viability with MMS, replicate 1 = 4.08e6
CG15369 (GeneID 31862): mean viability with MMS = 3.53e6; viability with MMS, replicate 1 = 4.06e6
Plp (GeneID 3772382) #1: mean viability with MMS = 3.42e6; viability with MMS, replicate 1 = 3.89e6
Plp (GeneID 3772382) #2: mean viability with MMS = 3.45e6; viability with MMS, replicate 1 = 3.93e6
Plp (GeneID 3772382) #3: mean viability with MMS = 3.64e6; viability with MMS, replicate 1 = 4.15e6
TBC1D23 (GeneID 33289): mean viability with MMS = 3.65e6; viability with MMS, replicate 1 = 4.21e6
Traf6 (GeneID 31746): mean viability with MMS = 3.66e6; viability with MMS, replicate 1 = 4.21e6
wor (GeneID 34906): mean viability with MMS = 3.58e6; viability with MMS, replicate 1 = 4.04e6
Drep1 (GeneID 36290): mean viability with MMS = 3.52e6; viability with MMS, replicate 1 = 3.98e6
RagC-D (GeneID 35793): mean viability with MMS = 3.45e6; viability with MMS, replicate 1 = 3.83e6
CG31021 (GeneID 43638): mean viability with MMS = 3.46e6; viability with MMS, replicate 1 = 3.92e6
rg (GeneID 44531) #1: mean viability with MMS = 3.40e6; viability with MMS, replicate 1 = 3.80e6
rg (GeneID 44531) #2: mean viability with MMS = 3.62e6; viability with MMS, replicate 1 = 3.97e6
rg (GeneID 44531) #3: mean viability with MMS = 3.48e6; viability with MMS, replicate 1 = 4.00e6
Nep2 (GeneID 40588) #1: mean viability with MMS = 3.39e6; viability with MMS, replicate 1 = 3.83e6
Nep2 (GeneID 40588) #2: mean viability with MMS = 3.57e6; viability with MMS, replicate 1 = 4.16e6
arm (GeneID 31151): mean viability with MMS = 3.59e6; viability with MMS, replicate 1 = 4.10e6
tplus3a + tplus3b: mean viability with MMS = 3.46e6; viability with MMS, replicate 1 = 4.05e6
CG6983 (GeneID 38964): mean viability with MMS = 3.77e6; viability with MMS, replicate 1 = 4.28e6
Nf-YC (GeneID 31622) #1: mean viability with MMS = 2.67e6; viability with MMS, replicate 1 = 3.34e6
Nf-YC (GeneID 31622) #2: mean viability with MMS = 3.60e6; viability with MMS, replicate 1 = 4.18e6
Cda9 (GeneID 36934): mean viability with MMS = 3.48e6; viability with MMS, replicate 1 = 3.91e6
eEF2 (GeneID 35422): mean viability with MMS = 3.30e6; viability with MMS, replicate 1 = 3.80e6
AP-1mu (GeneID 41150): mean viability with MMS = 3.50e6; viability with MMS, replicate 1 = 4.03e6
Sce (GeneID 43327): mean viability with MMS = 3.69e6; viability with MMS, replicate 1 = 4.30e6
eIF4E1 (GeneID 45525): mean viability with MMS = 3.09e6; viability with MMS, replicate 1 = 3.64e6
Pepck1 (GeneID 37131): mean viability with MMS = 3.58e6; viability with MMS, replicate 1 = 4.08e6
CG32119 (GeneID 317866) #1: mean viability with MMS = 3.83e6; viability with MMS, replicate 1 = 4.38e6
CG32119 (GeneID 317866) #2: mean viability with MMS = 3.39e6; viability with MMS, replicate 1 = 3.82e6
ATPsynO (GeneID 41845): mean viability with MMS = 3.37e6; viability with MMS, replicate 1 = 3.79e6
Mms19 (GeneID 40626): mean viability with MMS = 3.27e6; viability with MMS, replicate 1 = 3.71e6
net (GeneID 45339): mean viability with MMS = 3.55e6; viability with MMS, replicate 1 = 3.98e6
Cdlc2 (GeneID 33319): mean viability with MMS = 3.46e6; viability with MMS, replicate 1 = 3.73e6

As entered above:
For “mean viability with MMS”, CG6983 (GeneID 38964) shows 3.77e6
Under “viability with MMS, replicate 1”, eIF4E1 (GeneID 45525) is entered as 3.64e6
Value for eEF2 (GeneID 35422) in “viability with MMS, replicate 1”: 3.80e6
Nf-YC (GeneID 31622) #1, viability with MMS, replicate 1 = 3.34e6
